The record followed here is article PMC5919438.

Sequences of proteins named here, by UniProt entry; tags and fusion partners are left off.
UniProt Q98146: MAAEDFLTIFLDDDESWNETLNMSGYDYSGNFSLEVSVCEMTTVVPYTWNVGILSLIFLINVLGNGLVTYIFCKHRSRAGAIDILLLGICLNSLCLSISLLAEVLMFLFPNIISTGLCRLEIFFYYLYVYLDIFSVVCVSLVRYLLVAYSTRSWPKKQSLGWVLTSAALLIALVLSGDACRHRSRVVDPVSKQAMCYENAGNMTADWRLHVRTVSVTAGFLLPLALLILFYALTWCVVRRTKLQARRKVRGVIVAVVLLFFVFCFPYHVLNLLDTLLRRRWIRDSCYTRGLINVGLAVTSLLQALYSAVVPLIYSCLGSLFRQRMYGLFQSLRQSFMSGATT

Results are given in words; binding and its absence hold for the method and conditions named. Binding seen in cells or lysates may run through a third protein. Some results given as binding are weak or reduced against the parent protein; the word gives no strength.

For assay [1], the target named is T1, Cell adhesion molecule 1 (CADM1), endogenous (human (endogenous in HeLa and PEL cell lines)) (UniProt Q9BY67).
T1 sequence: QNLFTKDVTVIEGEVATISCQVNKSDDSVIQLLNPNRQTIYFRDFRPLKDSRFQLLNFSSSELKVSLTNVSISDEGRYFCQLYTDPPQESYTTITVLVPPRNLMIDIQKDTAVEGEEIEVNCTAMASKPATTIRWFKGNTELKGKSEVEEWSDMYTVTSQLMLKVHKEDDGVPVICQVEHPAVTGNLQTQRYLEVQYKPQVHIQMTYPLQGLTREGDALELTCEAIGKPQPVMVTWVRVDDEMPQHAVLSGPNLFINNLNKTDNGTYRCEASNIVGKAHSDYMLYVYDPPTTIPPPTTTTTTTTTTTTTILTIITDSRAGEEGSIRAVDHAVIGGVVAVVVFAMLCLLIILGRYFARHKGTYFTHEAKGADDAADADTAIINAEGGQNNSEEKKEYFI
Kind of assay: co-IP; endogenous proteins, lysates of PEL cell lines (BC-1, BC-3, BCBL-1); immunoprecipitated with anti-CADM1 or control IgG; blotted with anti-vFLIP or anti-vGPCR.

In assay [2] the target is Flag-vGPCR (KSHV viral G-protein-coupled receptor, open reading frame 74) (KSHV/HHV8 (cDNA of BC-3 cells)) (UniProt Q98146). Kind of assay: co-IP; HeLa cells transfected with Flag-vFLIP or Flag-vGPCR, 48 h; lysed in RIPA buffer; immunoprecipitated with anti-Flag or control IgG; blotted with anti-CADM1 (endogenous) and anti-Flag.

With “vGPCR (KSHV open reading frame 74), endogenous in PEL cells (from UniProt Q98146 1-342) (receptor)”, the binding entry in assay [1] is “binds”.

B1: Cell adhesion molecule 1 (CADM1), endogenous (protein, UniProt Q9BY67 45-442)
chain: QNLFTKDVTVIEGEVATISCQVNKSDDSVIQLLNPNRQTIYFRDFRPLKDSRFQLLNFSSSELKVSLTNVSISDEGRYFCQLYTDPPQESYTTITVLVPPRNLMIDIQKDTAVEGEEIEVNCTAMASKPATTIRWFKGNTELKGKSEVEEWSDMYTVTSQLMLKVHKEDDGVPVICQVEHPAVTGNLQTQRYLEVQYKPQVHIQMTYPLQGLTREGDALELTCEAIGKPQPVMVTWVRVDDEMPQHAVLSGPNLFINNLNKTDNGTYRCEASNIVGKAHSDYMLYVYDPPTTIPPPTTTTTTTTTTTTTILTIITDSRAGEEGSIRAVDHAVIGGVVAVVVFAMLCLLIILGRYFARHKGTYFTHEAKGADDAADADTAIINAEGGQNNSEEKKEYFI
As for B1, the binding entry in assay [2] is “binds”.
